Consider 68 molecules from PubChem BioAssay AID662 (National Center for Advancing Translational Sciences (NCATS), 2007).

Molecules are shown by their SMILES. Some of the results follow. Further columns of the screen follow, without active or inactive calls. Most of these compounds were active or inconclusive in the main read-out, so they are no random draw. The note in brackets gives the kind of curve behind each potency; many fits are weak.

The nature of this experiment: Cell signaling CRE-BLA (Fsk stim). Particulars: CHO CRE-bla reporter (cAMP response element driving beta-lactamase), forskolin EC10, beta-lactamase ratio; measured here: 460 nm blue channel. The gist of the method:
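CRE-bla CHO cells stimulated with EC10 NKH 477 (water-soluble forskolin) and compound titrations, 3 h at 37C; beta-lactamase read with CCF4 after 2 h at room temperature. Activity from 460/530 nm emission ratio, AC50 values for positive or negative modulation.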
Usually AC50 stands for the midpoint of the concentration-response curve, whichever way the signal moves. As to `O=C1NC(=O)C(c2ccccc2[N+](=O)[O-])=C1Nc1ccc(O)c(Cl)c1`, the AC50 is 25.1 µM [falling, partial curve, poor fit].
For `Cc1ccc(Cn2nnc3c(=O)[nH]c(C4CCCN(C(=O)Nc5ccc(F)cc5)C4)nc32)cc1` (stereo not drawn), the AC50 is 12.6 µM [rising, partial curve].
As to `Cc1nc2cnc(N(C)C)nc2n(-c2ccccc2)c1=O`, the AC50 is 15.8 µM [rising, partial curve].
In the case of `Cc1ccc2c(c1)-c1c(cnn1CC(=O)Nc1ccccc1N1CCN(C)CC1)CO2`, the AC50 is 10 µM [rising, partial curve].
Take `CC(NC(=O)c1cc2ccccc2o1)C(=O)O` (stereo not drawn): the AC50 is 0.316 µM [falling, partial curve].
Consider `CCOC(=O)c1cc(C(=O)OCC)c2cc(Br)ccc2n1`, for which the AC50 was 15.8 µM [rising, single point].
Then `Cc1ccc2c(CSc3nnc(C4CC4)n3N)cc(=O)oc2c1C`, with 10 µM [rising, partial curve]; and `CCN(CC)c1ccc2cc(-c3nc4ccccc4n3C)c(=O)oc2c1`, with 1.58 µM [rising, partial curve]; and `O=c1c2ccccc2nc(SCc2nnc(-c3ccccc3Br)o2)n1-c1ccccc1`, with 2.51 µM [rising, partial curve].
As to `COc1ncc2nc(-c3cn(C)c4ccccc34)c(=O)n(-c3ccccc3)c2n1`, the AC50 was 12.6 µM [rising, partial curve].
With `CCC1C(C#N)=C(SC)NC2=C1C(=O)CC(C)(C)C2` (stereo not drawn), the AC50 is 1 µM [falling, partial curve].
With `COc1ccc(OC)c(NC(=O)c2cc(S(=O)(=O)NCc3ccco3)ccc2F)c1`, the AC50 was 10 µM [rising, partial curve].
As for `Cn1c(=O)c2c(-c3ccccc3)n(CCCN3CCOCC3)cc2n(C)c1=O`, the figure is 12.6 µM [rising, single point]; as for `Clc1ccc(CCNc2ncnc3nc[nH]c23)cc1`, 10 µM [rising, partial curve].
On to `COc1ccccc1-c1cn[nH]c(=S)n1`, for which the AC50 is 15.8 µM [rising, single point].
Then `c1ccc(-c2nnc3sc(-c4csc5c4CCCC5)nn23)cc1`, with 10 µM [rising, partial curve]; and `COc1ccc(Cc2noc(-c3ccc(OC)c(OC)c3)n2)cc1OC`, with 12.6 µM [rising, partial curve]; and `CN1Cc2sc(N)c(C#N)c2CC1(C)C`, with 10 µM [rising, partial curve].
As to `CN(Cc1ccccc1)c1oc(-c2ccco2)nc1C#N`, the AC50 is 10 µM [rising, partial curve].
For the molecule `COc1ccc(-c2cc(C(F)(F)F)nc(S(=O)(=O)CCC(=O)N3CCOCC3)n2)cc1`, the AC50 is 7.94 µM [falling, partial curve].
In the case of `N#CCCn1cc(/C=N/O)c(-c2ccc(-c3ccccc3)cc2)n1`, the AC50 is 12.6 µM [rising, partial curve].
For `COc1cc(CO)cc(Br)c1OCc1cccnc1`, the AC50 is 12.6 µM [rising, partial curve].
For `CCc1nc(C)cn1S(=O)(=O)c1cc(C)c(OC)cc1C`, the AC50 was 12.6 µM [rising, partial curve].
Then `CN1CCN(CCC(=O)Nc2ccc(OCc3ccccc3)cc2)CC1`, with 3.98 µM [falling, partial curve]; and `CCN(CC)c1nc2ccccc2nc1C(C#N)C(=O)NCCCOC` (stereo not drawn), with 7.94 µM [rising, partial curve]; and `COc1ccc(CNC(=O)C2CCN(C(=O)[C@@H](CC(C)C)NC(=O)OC(C)(C)C)CC2)cc1`, with 25.1 µM [rising, single point].
On to `Cc1nc2c(C(=O)NCc3ccco3)cnn2c(C)c1Cc1ccc(F)cc1Cl`, for which the AC50 was 3.16 µM [rising, full curve].
For the molecule `COCCN1C(=O)c2oc3ccccc3c(=O)c2C1c1ccc(O)c(OC)c1` (stereo not drawn), the AC50 was 10 µM [rising, single point].
Then `COC(=O)[C@@]1(Cc2ccc(F)cc2)[C@H]2c3cc(C(=O)N(C)C)n(Cc4ccc(OC)c(OC)c4)c3C[C@H]2CN1C(=O)c1ccccc1`, with 20 µM [rising, partial curve]; and `Cc1ccc(NC(=O)CNc2cccc(C)c2C)c(C)c1`, with 0.501 µM [falling, partial curve]; and `Cc1ccc(-n2ncc3c(=O)[nH]c(SCC(=O)N4CCCc5ccccc54)nc32)cc1`, with 2.51 µM [rising, partial curve].
In the case of `N#C/C(=C\c1ccc(O)c(O)c1)C(=O)Nc1ccccc1`, the AC50 is 25.1 µM [rising, single point].
As to `Cc1ccc(C)c(CSc2nnc(-c3cccnc3)o2)c1`, the AC50 is 12.6 µM [rising, single point].
On to `COc1ccc(CCNc2nnc(Sc3nnnn3-c3ccccc3)s2)cc1OC`, for which the AC50 is 7.94 µM [rising, partial curve].
Turning to `COc1ccccc1NC(=O)Cn1cnc2c(oc3ccccc32)c1=O`, the AC50 was 12.6 µM [rising, partial curve].
As for `CCC1CCCCN1S(=O)(=O)c1ccc(C(=O)Nc2nnc(-c3cccs3)o2)cc1` (stereo not drawn), the figure is 25.1 µM [falling, single point]; as for `Cc1ccc(Cl)cc1N1CCN(C(=O)c2cn(C)c(=O)c3c2c2ccccc2n3C)CC1`, 0.316 µM [falling, full curve].
For the molecule `CCCCCn1c(CN2CCN(C(=O)OCC)CC2)nc2c1c(=O)[nH]c(=O)n2C`, the AC50 is 0.126 µM [rising, full curve, poor fit].
For `COC(=O)c1ccccc1NC(=O)COc1ccc(S(=O)(=O)N2CCCC2)cc1C`, the half-maximal activity concentration (AC50) is 0.398 µM [rising, partial curve].
In the case of `O=C1NCCCC1C(=O)N1CCN(C(c2ccccc2)c2ccccc2)CC1` (stereo not drawn), the AC50 is 0.631 µM [falling, full curve].
As for `CCC(CC)C(=O)NCCNC(=O)C(CC)CC`, the AC50 was 2 µM [rising, full curve].
Then `CCCc1nc(SCC(=O)Nc2cc(Cl)ccc2OC)c2c(=O)n(C)c(=O)n(C)c2n1`, with 3.16 µM [rising, single point]; and `Brc1c(CSc2nc3ccccc3o2)nc2ncccn12`, with 10 µM [rising, partial curve]; and `CCc1nnc(NC(=O)CSc2nc3ccccc3s2)s1`, with 20 µM [falling, partial curve].
With `CCCC(c1nnnn1Cc1ccc(OC)cc1)N1CCC(C(N)=O)CC1` (stereo not drawn), the AC50 was 2.51 µM [falling, partial curve].
Regarding `COCC(=O)NC(C)c1nc2ccccc2[nH]1` (stereo not drawn), the AC50 was 0.0501 µM [falling, full curve, poor fit].
Consider `CCOC(=O)c1c2n(c3ccc(O)cc13)CCC2`, for which the AC50 was 7.94 µM [rising, partial curve].
For the molecule `COc1ccc(-c2nn(C)c(=O)c3ccccc23)cc1NC(=O)Cn1nc(C)c2ccccc2c1=O`, the AC50 was 7.94 µM [rising, partial curve].
As for `C=CCN=C(NC#N)SCc1ccccc1Cl`, the AC50 was 12.6 µM [falling, single point].
Regarding `Cc1cc(NC(=O)CN2CCN(Cc3ccccc3)CC2)nc2c1c(=O)oc1ccccc12`, the half-maximal activity concentration (AC50) is 12.6 µM [rising, single point].
Then `COc1ccc(CNc2ncnc3ccc(-c4ccc(C(=O)N(C)C)cc4)cc23)c(OC)c1`, with 12.6 µM [rising, partial curve].
On to `CCOC(=O)c1cc(C)sc1N1C(=O)C2C3C=CC(C3)C2C1=O` (stereo not drawn), for which the AC50 is 15.8 µM [rising, single point].
Then `CN(C)c1ncc2nc(-c3ccccc3)c(=O)n(C[C@H]3CCCO3)c2n1`, with 5.01 µM [rising, partial curve]; and `NS(=O)(=O)c1cc(C(=O)O)c(Cl)c([N+](=O)[O-])c1Cl`, with 2 µM [falling, single point].
As to `Cc1nc(N2CCOCC2)c2cc(-c3ccccc3)sc2n1`, the AC50 is 2.51 µM [falling, single point].
Then `COc1ccc(OC)c(C(C)NC(C)=O)c1` (stereo not drawn), with 0.01 µM [falling, partial curve, poor fit]; and `COc1ccc(S(=O)(=O)Nc2ccccc2C(=O)NC(C)C)cc1OC`, with 0.794 µM [falling, full curve, poor fit]; and `CCCc1cc(-n2ccnc2)n2c(nc3ccccc32)c1C#N`, with 5.01 µM [falling, partial curve].
Turning to `COc1ccc(C(=O)N(Cc2nc(-c3ccc(C)cc3)no2)C2CCCCC2)cc1OC`, the AC50 was 25.1 µM [rising, single point].
As to `Cc1nn2c3ccccc3nc2n(Cc2ccccc2)c1=O`, the AC50 was 3.98 µM [rising, single point].
For `O=C(NCCN1CCOCC1)c1csc2c1CCCCC2`, the AC50 was 0.0316 µM [falling, full curve, poor fit].
`O=C(O)CCCC(=O)Nc1ccc(C(=O)N2CCCCC2)c(Cl)c1`: the AC50 was 0.00316 µM [falling, full curve, poor fit].
Consider `CCCCCSc1nnc2c(n1)OC(c1cccn1C)N(C(C)=O)c1ccccc1-2` (stereo not drawn), for which the AC50 was 1.26 µM [falling, partial curve].
Turning to `Cc1ccccc1-c1ccc2ncnc(-n3ccnc3)c2c1`, the AC50 was 12.6 µM [falling, single point].
As for `c1ccc(-c2cccc(-c3ccccn3)n2)nc1`, the figure is 15.8 µM [rising, single point]; as for `Cc1cccn2cc(CNC(=O)CC3CCCC3)nc12`, 5.01 µM [falling, single point].
In the case of `Nc1c(C(=O)OCC2CCCO2)c2nc3ccccc3nc2n1C1CCCC1` (stereo not drawn), the AC50 is 3.16 µM [rising, full curve].
As for `Cn1c(=O)c2nnn(/N=C(\c3ccccc3)C3CC3)c2n(C)c1=O`, the figure is 25.1 µM [rising, single point].
